Laboratory results: article PMC3694053

Protein sequences, listed by entry. Tags and fused reporters are not part of them.
UniProt Q13485: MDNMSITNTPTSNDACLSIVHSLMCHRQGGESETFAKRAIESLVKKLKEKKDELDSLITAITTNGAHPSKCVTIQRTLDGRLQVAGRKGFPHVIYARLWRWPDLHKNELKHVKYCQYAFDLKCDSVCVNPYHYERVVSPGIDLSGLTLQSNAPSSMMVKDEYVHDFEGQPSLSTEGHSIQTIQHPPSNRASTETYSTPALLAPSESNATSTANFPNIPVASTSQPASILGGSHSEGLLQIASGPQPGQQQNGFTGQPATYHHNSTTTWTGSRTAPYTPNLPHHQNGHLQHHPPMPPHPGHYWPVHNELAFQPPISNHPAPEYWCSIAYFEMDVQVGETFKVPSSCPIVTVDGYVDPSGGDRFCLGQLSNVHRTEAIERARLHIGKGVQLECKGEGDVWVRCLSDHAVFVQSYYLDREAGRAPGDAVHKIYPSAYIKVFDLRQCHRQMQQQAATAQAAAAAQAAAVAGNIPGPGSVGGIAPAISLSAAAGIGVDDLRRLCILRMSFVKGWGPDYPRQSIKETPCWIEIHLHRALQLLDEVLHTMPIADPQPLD
UniProt P98175: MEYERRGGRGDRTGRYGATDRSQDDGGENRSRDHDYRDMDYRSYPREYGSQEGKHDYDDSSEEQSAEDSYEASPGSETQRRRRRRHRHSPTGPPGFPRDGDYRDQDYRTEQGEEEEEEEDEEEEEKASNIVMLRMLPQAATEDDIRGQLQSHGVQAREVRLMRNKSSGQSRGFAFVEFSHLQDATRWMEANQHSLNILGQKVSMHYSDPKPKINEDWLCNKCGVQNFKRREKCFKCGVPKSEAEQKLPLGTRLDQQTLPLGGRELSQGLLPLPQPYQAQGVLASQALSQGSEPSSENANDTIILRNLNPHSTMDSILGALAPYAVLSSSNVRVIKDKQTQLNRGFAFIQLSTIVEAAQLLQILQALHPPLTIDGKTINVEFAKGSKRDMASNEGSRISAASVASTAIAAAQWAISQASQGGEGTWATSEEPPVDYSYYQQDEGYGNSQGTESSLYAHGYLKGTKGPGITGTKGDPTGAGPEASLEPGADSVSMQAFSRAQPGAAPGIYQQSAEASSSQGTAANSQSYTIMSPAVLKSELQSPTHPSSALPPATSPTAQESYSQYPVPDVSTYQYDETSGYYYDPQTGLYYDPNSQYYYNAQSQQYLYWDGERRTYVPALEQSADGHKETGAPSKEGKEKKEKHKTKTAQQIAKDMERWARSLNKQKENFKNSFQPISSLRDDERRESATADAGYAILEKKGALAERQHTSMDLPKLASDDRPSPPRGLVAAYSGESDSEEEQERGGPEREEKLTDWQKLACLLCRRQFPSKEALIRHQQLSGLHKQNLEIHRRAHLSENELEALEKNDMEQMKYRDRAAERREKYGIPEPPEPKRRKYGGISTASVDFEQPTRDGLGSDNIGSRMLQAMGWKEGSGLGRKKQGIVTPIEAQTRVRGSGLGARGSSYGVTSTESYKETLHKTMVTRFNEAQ
UniProt Q15208: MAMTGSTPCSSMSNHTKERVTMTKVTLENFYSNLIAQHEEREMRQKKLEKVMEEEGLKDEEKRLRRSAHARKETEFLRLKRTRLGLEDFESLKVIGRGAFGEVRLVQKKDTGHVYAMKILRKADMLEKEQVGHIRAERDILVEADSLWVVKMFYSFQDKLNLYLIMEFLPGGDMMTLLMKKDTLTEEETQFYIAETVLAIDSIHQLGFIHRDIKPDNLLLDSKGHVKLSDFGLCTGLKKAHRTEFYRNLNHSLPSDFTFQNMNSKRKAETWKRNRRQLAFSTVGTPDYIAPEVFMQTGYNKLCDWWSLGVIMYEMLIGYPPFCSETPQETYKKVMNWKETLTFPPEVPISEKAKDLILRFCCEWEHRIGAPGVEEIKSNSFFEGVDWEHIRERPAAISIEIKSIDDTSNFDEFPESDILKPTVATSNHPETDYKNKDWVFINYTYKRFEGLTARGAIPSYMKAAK
UniProt O14744: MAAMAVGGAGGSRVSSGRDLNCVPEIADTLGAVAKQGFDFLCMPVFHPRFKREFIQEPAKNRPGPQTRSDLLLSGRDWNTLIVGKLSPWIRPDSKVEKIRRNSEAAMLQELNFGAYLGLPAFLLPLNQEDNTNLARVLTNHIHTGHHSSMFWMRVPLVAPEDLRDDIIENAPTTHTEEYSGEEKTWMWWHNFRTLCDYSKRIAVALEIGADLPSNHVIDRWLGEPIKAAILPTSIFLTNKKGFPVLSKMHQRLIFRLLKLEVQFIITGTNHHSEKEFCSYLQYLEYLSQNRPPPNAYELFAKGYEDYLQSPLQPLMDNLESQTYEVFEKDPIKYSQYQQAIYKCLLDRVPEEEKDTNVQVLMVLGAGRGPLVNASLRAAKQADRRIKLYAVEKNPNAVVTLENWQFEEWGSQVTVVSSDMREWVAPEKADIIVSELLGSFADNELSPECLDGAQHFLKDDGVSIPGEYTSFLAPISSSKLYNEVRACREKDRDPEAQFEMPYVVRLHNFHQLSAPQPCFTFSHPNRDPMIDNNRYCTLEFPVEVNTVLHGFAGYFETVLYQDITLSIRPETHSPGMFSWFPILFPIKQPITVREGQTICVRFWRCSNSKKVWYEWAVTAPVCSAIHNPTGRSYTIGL

Columns and labels:
[1] = target: T1, FLAG, HA-SnoN (UniProt P12757); test: affinity purification with mass spectrometry; tandem affinity purification from lysates of HaCaT cells stably expressing FLAG, HA-SnoN or control vector: anti-FLAG M2 gel, elution with TEV enzyme, anti-HA matrix, SDS-PAGE, LC-MS/MS of gel slices; TNE-based buffer with 0.5% Triton X-100
T1 sequence: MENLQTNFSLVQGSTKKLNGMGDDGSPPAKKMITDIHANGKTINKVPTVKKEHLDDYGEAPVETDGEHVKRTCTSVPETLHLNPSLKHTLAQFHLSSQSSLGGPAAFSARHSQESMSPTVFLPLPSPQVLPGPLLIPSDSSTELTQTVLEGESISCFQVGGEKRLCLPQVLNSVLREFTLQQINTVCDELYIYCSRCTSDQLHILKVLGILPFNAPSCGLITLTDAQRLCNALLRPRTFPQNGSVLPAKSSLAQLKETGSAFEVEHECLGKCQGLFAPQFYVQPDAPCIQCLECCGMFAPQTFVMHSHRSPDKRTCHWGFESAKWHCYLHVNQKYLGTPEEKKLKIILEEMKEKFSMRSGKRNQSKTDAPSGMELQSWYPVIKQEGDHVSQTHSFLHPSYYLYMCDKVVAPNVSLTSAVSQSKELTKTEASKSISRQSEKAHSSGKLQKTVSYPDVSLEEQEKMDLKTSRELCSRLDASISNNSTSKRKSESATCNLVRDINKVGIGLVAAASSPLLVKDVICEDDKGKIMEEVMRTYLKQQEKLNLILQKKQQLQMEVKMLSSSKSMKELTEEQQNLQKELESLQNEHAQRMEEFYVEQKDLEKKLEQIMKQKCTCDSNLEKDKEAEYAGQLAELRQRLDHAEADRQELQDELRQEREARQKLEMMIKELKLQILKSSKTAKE

[2] = target: T1, FLAG, HA-SnoN; test: as above; remark: listed apart in the source

With Smad4 (from UniProt Q13485 1-552) the binding [1] was “binds”.

α-tubulin (human (endogenous in HaCaT)) was tested, and the binding [1] was “binds”.

RBM10 (from UniProt P98175 1-930) was tested, and the binding [1] was “binds”.

With “endogenous NDR1 (nuclear Dbf2-related 1) (from UniProt Q15208 1-465)” the binding [1] was “binds”.

With “Skb1Hs/PRMT5 (from UniProt O14744 1-637)” the binding [1] was “binds”.

B1: Ski (protein, UniProt P12755 1-728)
chain: MEAAAGGRGCFQPHPGLQKTLEQFHLSSMSSLGGPAAFSARWAQEAYKKESAKEAGAAAVPAPVPAATEPPPVLHLPAIQPPPPVLPGPFFMPSDRSTERCETVLEGETISCFVVGGEKRLCLPQILNSVLRDFSLQQINAVCDELHIYCSRCTADQLEILKVMGILPFSAPSCGLITKTDAERLCNALLYGGAYPPPCKKELAASLALGLELSERSVRVYHECFGKCKGLLVPELYSSPSAACIQCLDCRLMYPPHKFVVHSHKALENRTCHWGFDSANWRAYILLSQDYTGKEEQARLGRCLDDVKEKFDYGNKYKRRVPRVSSEPPASIRPKTDDTSSQSPAPSEKDKPSSWLRTLAGSSNKSLGCVHPRQRLSAFRPWSPAVSASEKELSPHLPALIRDSFYSYKSFETAVAPNVALAPPAQQKVVSSPPCAAAVSRAPEPLATCTQPRKRKLTVDTPGAPETLAPVAAPEEDKDSEAEVEVESREEFTSSLSSLSSPSFTSSSSAKDLGSPGARALPSAVPDAAAPADAPSGLEAELEHLRQALEGGLDTKEAKEKFLHEVVKMRVKQEEKLSAALQAKRSLHQELEFLRVAKKEKLREATEAKRNLRKEIERLRAENEKKMKEANESRLRLKRELEQARQARVCDKGCEAGRLRAKYSAQIEDLQVKLQHAEADREQLRADLLREREAREHLEKVVKELQEQLWPRARPEAAGSEGAAELEP
With B1 the binding [2] was “binds”.

Read-outs that look alike come from different tables or passages of the source. Results are given in words; binding and its absence hold for the method and conditions named. In cells and extracts the contact can be indirect. These calls come from enrichment with a bait or labelling near it, and not all partners need be listed. Sequences can lack the tags named with a protein.
